According to PubChem BioAssay (NCATS):
Inconclusive results, whose numbers are uncertain, are shown with a selection of clear calls. Where the call is inconclusive, the potency comes from a doubtful curve fit. Calls of active or inactive are those of the source. Calls come from the whole dose curve; as a rule, active = well fitted curve in the direction sought with a large enough effect; inconclusive = small, poorly fitted or top-dose-only effect, or another doubt; inactive = no such curve, though single readings can be large; an effect the other way counts as inactive or inconclusive.

What was measured:
[1] = Quantitative High-Throughput drug screen in 47 multiple myeloma cell lines against the NCATS MIPE library collection: MOLP8_DSMZ cell viability assay (AID 1918977); note: nearly all actives have a fitted effect of over 45% in size
Procedure, shortened: (§1)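 Readout: median RLU from CellTiter-Glo after 5 min at room temperature. Preceding step was 48 h drug treatment of 500 cells/well at 37 °C, 5% CO2, with DMSO-only and media-only control wells.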

[2] = Quantitative High-Throughput drug screen in 47 multiple myeloma cell lines against the NCATS MIPE library collection: NCIH929_DSMZ cell viability assay (AID 1918978); conditions: NCI-H929 myeloma viability, CellTiter-Glo ATP, 48 h; viability, % of control: at 45.8 µM (top of the series); note: nearly all actives have a fitted effect of over 35% in size
Procedure, shortened: as §1

[3] = Quantitative High-Throughput drug screen in 47 multiple myeloma cell lines against the NCATS MIPE library collection: MM1S_ATCC cell viability assay (AID 1918980); note: nearly all actives have a fitted effect of over 45% in size
Procedure, shortened: as §1

[4] = Quantitative High-Throughput drug screen in 47 multiple myeloma cell lines against the NCATS MIPE library collection: MM1R_ATCC cell viability assay (AID 1918981); note: nearly all actives have a fitted effect of over 35% in size
Procedure, shortened: as §1

[5] = Quantitative High-Throughput drug screen in 47 multiple myeloma cell lines against the NCATS MIPE library collection: LP1_DSMZ cell viability assay (AID 1918982); note: nearly all actives have a fitted effect of over 35% in size
Procedure, shortened: as §1

[6] = Quantitative High-Throughput drug screen in 47 multiple myeloma cell lines against the NCATS MIPE library collection: KMS28PE_JCRB cell viability assay (AID 1918983); note: nearly all actives have a fitted effect of over 35% in size
Procedure, shortened: as §1

[7] = Quantitative High-Throughput drug screen in 47 multiple myeloma cell lines against the NCATS MIPE library collection: L363_DSMZ cell viability assay (AID 1918984); conditions: L363 myeloma viability, CellTiter-Glo ATP luminescence, 48 h; viability (% of control): at 45.8 µM; note: nearly all actives have a fitted effect of over 40% in size
Procedure, shortened: as §1

[8] = Quantitative High-Throughput drug screen in 47 multiple myeloma cell lines against the NCATS MIPE library collection: KMS34_JCRB cell viability assay (AID 1918985); conditions: KMS34 myeloma viability, CellTiter-Glo ATP luminescence, 48 h; series mostly up to 45.8 µM; note: nearly all actives have a fitted effect of over 40% in size
Procedure, shortened: as §1

[9] = Quantitative High-Throughput drug screen in 47 multiple myeloma cell lines against the NCATS MIPE library collection: OCIMY7_PLB cell viability assay (AID 1918987); conditions: OCI-MY7 myeloma viability, CellTiter-Glo ATP, 48 h; viability (% of DMSO): at 45.8 µM unless noted; note: nearly all actives have a fitted effect of over 65% in size
Procedure, shortened: as §1

[10] = Quantitative High-Throughput drug screen in 47 multiple myeloma cell lines against the NCATS MIPE library collection: OCIMY5_PLB cell viability assay (AID 1918988); conditions: OCI-MY5 myeloma viability, ATP luminescence, 48 h; viability, % of control: at 45.8 µM; note: nearly all actives have a fitted effect of over 65% in size
Procedure, shortened: as §1

[11] = Quantitative High-Throughput drug screen in 47 multiple myeloma cell lines against the NCATS MIPE library collection: SKMM1_PLB cell viability assay (AID 1919863); conditions: SKMM1 myeloma viability, CellTiter-Glo ATP, 48 h; viability: stronger effect = lower value; note: nearly all actives have a fitted effect of over 35% in size
Procedure, shortened: as §1

[12] = Quantitative High-Throughput drug screen in 47 multiple myeloma cell lines against the NCATS MIPE library collection: XG6_PLB cell viability assay (AID 1919865); conditions: XG6 myeloma viability, CellTiter-Glo ATP luminescence, 48 h; viability (% of control): at 45.8 µM; note: nearly all actives have a fitted effect of over 40% in size
Procedure, shortened: as §1

[13] = Quantitative High-Throughput drug screen in 47 multiple myeloma cell lines against the NCATS MIPE library collection: XG1_PLB cell viability assay (AID 1919866); note: nearly all actives have a fitted effect of over 35% in size
Procedure, shortened: as §1

[14] = Quantitative High-Throughput drug screen in 47 multiple myeloma cell lines against the NCATS MIPE library collection: VP6_DJ cell viability assay (AID 1919867); conditions: ATP luminescence, 48 h; viability (% of DMSO): at 45.8 µM; note: nearly all actives have a fitted effect of over 40% in size
Procedure, shortened: as §1

[15] = Quantitative High-Throughput drug screen in 47 multiple myeloma cell lines against the NCATS MIPE library collection: UTMC2_PLB cell viability assay (AID 1919868); conditions: CellTiter-Glo ATP luminescence, 48 h; series mostly up to 45.8 µM; note: nearly all actives have a fitted effect of over 55% in size
Procedure, shortened: as §1

[16] = Quantitative High-Throughput drug screen in 47 multiple myeloma cell lines against the NCATS MIPE library collection: PE2_PLB cell viability assay (AID 1919869); conditions: PE2_PLB myeloma cells viability, ATP luminescence, 48 h; viability (% of control): at 45.8 µM; note: nearly all actives have a fitted effect of over 35% in size
Procedure, shortened: as §1

[17] = Quantitative High-Throughput drug screen in 47 multiple myeloma cell lines against the NCATS MIPE library collection: PCM6_Riken cell viability assay (AID 1919870); conditions: CellTiter-Glo ATP, 48 h; viability (% of control): at 45.8 µM; note: nearly all actives have a fitted effect of over 30% in size
Procedure, shortened: as §1

[18] = Quantitative High-Throughput drug screen in 47 multiple myeloma cell lines against the NCATS MIPE library collection: OCIMY1_PLB cell viability assay (AID 1918979); note: nearly all actives have a fitted effect of over 35% in size
Procedure, shortened: as §1

[19] = Quantitative High-Throughput drug screen in 47 multiple myeloma cell lines against the NCATS MIPE library collection: U266_ATCC cell viability assay (AID 1919864); note: nearly all actives have a fitted effect of over 35% in size
Procedure, shortened: as §1

[20] = Quantitative High-Throughput drug screen in 47 multiple myeloma cell lines against the NCATS MIPE library collection: OPM1_PLB cell viability assay (AID 1918989); conditions: CellTiter-Glo, 48 h; viability (% of control): at 45.8 µM; note: nearly all actives have a fitted effect of over 40% in size
Procedure, shortened: as §1
Potency is the fitted concentration of half-maximal effect.

Q: Which Potency [1] does the source give for `CCN1CCN(Cc2ccc(-c3cc4c(N[C@H](C)c5ccccc5)ncnc4[nH]3)cc2)CC1` here?
A: inconclusive: 11800 nM [cytotoxic, partial curve, poor fit]

Q: And the Potency [2]?
A: inconclusive: 10500 nM [cytotoxic, partial curve, poor fit]

Q: What about the Potency [3] of the same molecule?
A: inconclusive: 105 nM [cytotoxic, full curve]

Q: And the Potency [4]?
A: inconclusive: 7430 nM [cytotoxic, partial curve, poor fit]

Q: And the Potency [5]?
A: inconclusive: 833 nM [cytotoxic, full curve, poor fit]

Q: What about the Potency [6] of the same molecule?
A: inconclusive: 13200 nM [cytotoxic, partial curve, poor fit]

Q: What about the Potency [7] of the same molecule?
A: active: 23.5 nM

Q: What about the Potency [8] of the same molecule?
A: inconclusive: 3.3 nM [cytotoxic, full curve, poor fit]

Q: And the Potency [9]?
A: inactive

Q: And the Potency [10]?
A: inconclusive: 2350 nM [cytotoxic, full curve]

Q: What about the Potency [11] of the same molecule?
A: inconclusive: 7430 nM [cytotoxic, partial curve, poor fit]

Q: What about the Potency [12] of the same molecule?
A: inconclusive: 1320 nM [cytotoxic, full curve]

Q: What about the Potency [13] of the same molecule?
A: inconclusive: 14800 nM [cytotoxic, partial curve]

Q: What about the Potency [14] of the same molecule?
A: inconclusive: 14.8 nM [cytotoxic, full curve, poor fit]

Q: What about the Potency [15] of the same molecule?
A: active: 662 nM

Q: What about the Potency [16] of the same molecule?
A: inconclusive: 1320 nM [cytotoxic, partial curve, poor fit]

Q: And the Potency [17]?
A: active: 1660 nM

Q: With `CC(C)c1cnn2c(NCc3ccccc3)cc(NCCCCCCN)nc12` as the molecule, how does the Potency [1] read?
A: inconclusive: 16600 nM [cytotoxic, partial curve, poor fit]

Q: What about the Potency [2] of the same molecule?
A: inconclusive: 590 nM [cytotoxic, full curve, poor fit]

Q: And the Potency [18]?
A: inconclusive: 33200 nM [cytotoxic, single point]

Q: And the Potency [5]?
A: active: 18700 nM

Q: And the Potency [9]?
A: active: 11800 nM

Q: And the Potency [11]?
A: inconclusive: 37200 nM [cytotoxic, single point]

Q: What about the Potency [19] of the same molecule?
A: active: 2640 nM

Q: And the Potency [12]?
A: active: 332 nM

Q: What about the Potency [15] of the same molecule?
A: inconclusive: 10500 nM [cytotoxic, partial curve, poor fit]

Q: Which results are given for `CCc1cc2c(cc1N1CCC(N3CCOCC3)CC1)C(C)(C)c1[nH]c3cc(C#N)ccc3c1C2=O`?
A: Potency [1]: inconclusive: 11.8 nM [rising, full curve, poor fit]; Potency [2]: inconclusive: 16.6 nM [rising, full curve, poor fit]; Potency [18]: inconclusive: 16.6 nM [rising, full curve, poor fit]; Potency [3]: inconclusive: 18.7 nM [rising, full curve]; Potency [5]: inconclusive: 11.8 nM [rising, full curve, poor fit]; Potency [6]: inconclusive: 14.8 nM [rising, full curve, poor fit]; Potency [8]: inconclusive: 13.2 nM [rising, full curve, poor fit]; Potency [10]: inconclusive: 9350 nM [cytotoxic, partial curve, poor fit]; Potency [20]: inconclusive: 8.3 nM [rising, full curve, poor fit]; Potency [11]: inconclusive: 5.9 nM [rising, full curve, poor fit]; Potency [19]: inconclusive: 16.6 nM [rising, full curve]; Potency [12]: inconclusive: 14800 nM [cytotoxic, partial curve, poor fit]; Potency [13]: inconclusive: 5.3 nM [rising, full curve, poor fit]; Potency [14]: inconclusive: 4180 nM [cytotoxic, full curve, poor fit]; Potency [15]: inconclusive: 13.2 nM [rising, full curve, poor fit]; Potency [16]: inconclusive: 3720 nM [cytotoxic, full curve, poor fit]; Potency [17]: inconclusive: 2.3 nM [rising, full curve, poor fit]

Q: What does the source list for `CC1(C)[C@H]2CC[C@]3(C)[C@@H](C(=O)C=C4[C@@H]5C[C@@](C)(C(=O)O)CC[C@]5(C)CC[C@]43C)[C@@]2(C)CC[C@@H]1O`?
A: Potency [1]: inconclusive: 20900 nM [cytotoxic, partial curve, poor fit]; Potency [2]: inactive; Potency [18]: inactive; Potency [3]: inactive; Potency [4]: inactive; Potency [6]: active: 18700 nM; Potency [7]: inconclusive: 1.9 nM [rising, full curve, poor fit]; Potency [8]: inconclusive: 1.7 nM [cytotoxic, full curve, poor fit]; Potency [9]: inconclusive: 833 nM [cytotoxic, full curve, poor fit]; Potency [10]: inconclusive: 10500 nM [cytotoxic, partial curve, poor fit]; Potency [19]: inactive; Potency [12]: inactive; Potency [14]: inactive; Potency [17]: inactive

Q: Which Potency [1] does the source give for `CC(C)n1cnc2c(NCCc3ccc(O)cc3)nc(-c3csc4ccccc34)nc21` here?
A: inconclusive: 33200 nM [cytotoxic, single point]

Q: What about the Potency [2] of the same molecule?
A: inconclusive: 29600 nM [cytotoxic, single point]

Q: And the Potency [18]?
A: active: 20900 nM

Q: And the Potency [5]?
A: active: 16600 nM

Q: What about the Potency [6] of the same molecule?
A: inconclusive: 37200 nM [cytotoxic, single point]

Q: And the Potency [7]?
A: inconclusive: 37200 nM [rising, single point]

Q: What about the Potency [9] of the same molecule?
A: active: 7430 nM

Q: And the Potency [10]?
A: active: 1660 nM

Q: And the Potency [16]?
A: inconclusive: 33200 nM [cytotoxic, single point]

Q: For `CC(=O)OC[C@@H]1O[C@@H](n2ccc(=O)[nH]c2=O)[C@H](OC(C)=O)[C@H]1OC(C)=O`, which Potency [1] is on record?
A: inactive

Q: And the Potency [2]?
A: inactive

Q: And the Potency [9]?
A: inconclusive: 1480 nM [cytotoxic, full curve, poor fit]

Q: And the Potency [10]?
A: inactive

Q: And the Potency [11]?
A: inconclusive: 11800 nM [cytotoxic, partial curve, poor fit]

Q: What about the Potency [13] of the same molecule?
A: inactive

Q: And the Potency [14]?
A: inconclusive: 11800 nM [cytotoxic, partial curve, poor fit]

Q: What about the Potency [15] of the same molecule?
A: inactive
